{"source": "paper PMC7738871", "about": "“Covalent modification of Keap1 at Cys77 and Cys434 by pubescenoside a suppresses oxidative stress-induced NLRP3 inflammasome activation in myocardial ischemia-reperfusion injury” (Theranostics, 2021)", "test_system": "T1, Recombinant human Keap1", "T1 construct": "His (N); made in house; host or cells: E. coli BL21 (DE3)", "experiment": "LC/MS/MS detection of cysteines modified by PBA", "type": "binding"}
{"smiles": "C=C(COC(=O)C=Cc1ccc(O)c(O)c1)C(O)COC1OC(CO)C(O)C(O)C1O", "note": "(centres unmarked) [PBA, pubescenoside A]", "values": [{"measurement": "covalent modifications at Cys77, Cys23, Cys38, Cys273 and Cys236", "setting": "MS study", "value": "similarly discovered"}, {"measurement": "increase in mass of chymotrypic peptide covering Cys434", "setting": "recombinant Keap1 incubated with PBA, MS analysis", "value": 442.14}]}
